Assay results: the supplement of paper PMC10849652
The list shows a part of the results.

The chains behind the UniProt entries cited, without tags or fusion partners. Where a name states a change or a piece, a line headed by the entry shows the natural chain unless it says otherwise.
UniProt O43583: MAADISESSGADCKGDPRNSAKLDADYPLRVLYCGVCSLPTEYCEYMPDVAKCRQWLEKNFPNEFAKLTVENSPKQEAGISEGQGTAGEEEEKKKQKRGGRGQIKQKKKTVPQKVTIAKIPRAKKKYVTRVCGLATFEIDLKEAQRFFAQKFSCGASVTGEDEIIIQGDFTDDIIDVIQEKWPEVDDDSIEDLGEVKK
UniProt P17844: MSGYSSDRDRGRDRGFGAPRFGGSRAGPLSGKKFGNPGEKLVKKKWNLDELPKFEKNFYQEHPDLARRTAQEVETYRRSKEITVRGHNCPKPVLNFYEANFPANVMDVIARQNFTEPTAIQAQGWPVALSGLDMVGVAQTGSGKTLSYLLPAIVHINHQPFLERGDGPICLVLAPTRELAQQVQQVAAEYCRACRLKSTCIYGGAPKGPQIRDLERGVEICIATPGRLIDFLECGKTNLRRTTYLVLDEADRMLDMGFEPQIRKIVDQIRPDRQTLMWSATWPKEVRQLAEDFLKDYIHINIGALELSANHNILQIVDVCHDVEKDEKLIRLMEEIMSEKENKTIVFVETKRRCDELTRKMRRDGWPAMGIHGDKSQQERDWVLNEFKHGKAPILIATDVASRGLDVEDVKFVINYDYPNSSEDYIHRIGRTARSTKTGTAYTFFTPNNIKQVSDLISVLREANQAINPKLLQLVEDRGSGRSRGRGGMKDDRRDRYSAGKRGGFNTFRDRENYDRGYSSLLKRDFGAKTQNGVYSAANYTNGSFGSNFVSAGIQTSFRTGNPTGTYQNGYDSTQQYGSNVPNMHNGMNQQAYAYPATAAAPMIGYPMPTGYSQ
UniProt Q9UMR2: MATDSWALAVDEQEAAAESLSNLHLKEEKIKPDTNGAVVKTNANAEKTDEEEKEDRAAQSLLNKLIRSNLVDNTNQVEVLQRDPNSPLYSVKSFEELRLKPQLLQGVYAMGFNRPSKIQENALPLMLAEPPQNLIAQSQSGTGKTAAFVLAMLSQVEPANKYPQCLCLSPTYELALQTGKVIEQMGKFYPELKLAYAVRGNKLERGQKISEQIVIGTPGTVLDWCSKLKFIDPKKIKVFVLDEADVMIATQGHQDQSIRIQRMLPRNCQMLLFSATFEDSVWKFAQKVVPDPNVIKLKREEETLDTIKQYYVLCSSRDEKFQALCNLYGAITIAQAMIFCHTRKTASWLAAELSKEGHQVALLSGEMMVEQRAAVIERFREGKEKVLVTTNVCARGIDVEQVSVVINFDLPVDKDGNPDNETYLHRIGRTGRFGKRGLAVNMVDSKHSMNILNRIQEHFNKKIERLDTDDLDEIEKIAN
UniProt Q13561, whole entry, looked up: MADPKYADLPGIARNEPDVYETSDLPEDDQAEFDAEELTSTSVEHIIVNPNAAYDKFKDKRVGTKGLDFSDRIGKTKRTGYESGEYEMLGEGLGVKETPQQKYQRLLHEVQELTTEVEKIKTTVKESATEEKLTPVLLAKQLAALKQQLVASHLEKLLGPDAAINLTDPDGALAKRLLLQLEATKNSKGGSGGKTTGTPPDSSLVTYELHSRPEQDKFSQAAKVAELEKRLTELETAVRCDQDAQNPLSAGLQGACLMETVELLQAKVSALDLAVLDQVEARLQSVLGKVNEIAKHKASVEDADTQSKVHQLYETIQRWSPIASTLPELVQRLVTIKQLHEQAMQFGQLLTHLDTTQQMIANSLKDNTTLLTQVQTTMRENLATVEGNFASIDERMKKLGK
UniProt Q92841: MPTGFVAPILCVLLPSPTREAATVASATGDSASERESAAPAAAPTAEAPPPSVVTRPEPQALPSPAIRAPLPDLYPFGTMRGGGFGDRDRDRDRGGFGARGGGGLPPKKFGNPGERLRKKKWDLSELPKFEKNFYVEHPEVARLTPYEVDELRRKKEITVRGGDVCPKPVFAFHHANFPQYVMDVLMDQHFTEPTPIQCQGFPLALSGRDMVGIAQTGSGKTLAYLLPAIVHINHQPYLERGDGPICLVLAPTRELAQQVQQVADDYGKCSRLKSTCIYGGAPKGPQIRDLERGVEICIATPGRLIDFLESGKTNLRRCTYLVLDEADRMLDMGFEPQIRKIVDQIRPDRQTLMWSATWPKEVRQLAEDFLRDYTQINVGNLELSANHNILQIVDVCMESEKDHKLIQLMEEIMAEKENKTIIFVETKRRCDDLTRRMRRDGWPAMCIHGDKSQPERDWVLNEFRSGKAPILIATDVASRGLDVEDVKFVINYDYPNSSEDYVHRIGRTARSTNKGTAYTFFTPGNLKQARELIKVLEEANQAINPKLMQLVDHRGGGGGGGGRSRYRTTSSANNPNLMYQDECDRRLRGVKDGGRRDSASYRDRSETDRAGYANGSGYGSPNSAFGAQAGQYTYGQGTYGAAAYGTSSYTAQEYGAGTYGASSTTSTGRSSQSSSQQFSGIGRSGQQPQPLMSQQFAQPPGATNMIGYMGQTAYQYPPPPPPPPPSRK
UniProt Q9BQ39: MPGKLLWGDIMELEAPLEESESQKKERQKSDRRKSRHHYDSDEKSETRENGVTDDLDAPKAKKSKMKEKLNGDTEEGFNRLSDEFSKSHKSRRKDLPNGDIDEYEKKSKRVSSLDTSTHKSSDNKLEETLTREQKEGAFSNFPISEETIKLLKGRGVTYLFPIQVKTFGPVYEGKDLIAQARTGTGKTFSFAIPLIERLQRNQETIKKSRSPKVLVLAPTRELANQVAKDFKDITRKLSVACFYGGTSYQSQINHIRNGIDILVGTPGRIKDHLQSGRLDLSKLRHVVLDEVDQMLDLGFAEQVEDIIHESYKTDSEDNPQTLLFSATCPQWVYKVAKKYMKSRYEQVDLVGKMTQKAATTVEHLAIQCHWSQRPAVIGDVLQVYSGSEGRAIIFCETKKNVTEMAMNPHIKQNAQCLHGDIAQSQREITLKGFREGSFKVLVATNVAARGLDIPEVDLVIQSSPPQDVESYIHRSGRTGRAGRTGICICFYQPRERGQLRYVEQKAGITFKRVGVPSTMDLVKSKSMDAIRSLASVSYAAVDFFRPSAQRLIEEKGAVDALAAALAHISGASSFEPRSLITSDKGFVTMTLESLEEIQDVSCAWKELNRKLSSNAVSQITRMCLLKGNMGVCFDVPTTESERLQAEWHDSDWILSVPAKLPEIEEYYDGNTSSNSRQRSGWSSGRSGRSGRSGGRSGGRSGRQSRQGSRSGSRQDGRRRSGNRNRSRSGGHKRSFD
UniProt Q96HY6: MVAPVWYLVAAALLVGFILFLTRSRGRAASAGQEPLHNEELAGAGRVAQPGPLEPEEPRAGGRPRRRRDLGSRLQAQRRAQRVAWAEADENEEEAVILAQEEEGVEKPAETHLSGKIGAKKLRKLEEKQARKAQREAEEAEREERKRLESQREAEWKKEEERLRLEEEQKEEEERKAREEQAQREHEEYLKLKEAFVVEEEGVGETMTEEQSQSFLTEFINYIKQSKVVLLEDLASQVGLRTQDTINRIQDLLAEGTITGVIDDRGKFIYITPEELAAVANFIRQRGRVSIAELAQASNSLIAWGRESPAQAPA
UniProt P30046: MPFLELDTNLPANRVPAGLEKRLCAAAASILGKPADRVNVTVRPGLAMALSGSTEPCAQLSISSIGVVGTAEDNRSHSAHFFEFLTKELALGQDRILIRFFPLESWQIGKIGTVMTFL
UniProt Q9BTE7: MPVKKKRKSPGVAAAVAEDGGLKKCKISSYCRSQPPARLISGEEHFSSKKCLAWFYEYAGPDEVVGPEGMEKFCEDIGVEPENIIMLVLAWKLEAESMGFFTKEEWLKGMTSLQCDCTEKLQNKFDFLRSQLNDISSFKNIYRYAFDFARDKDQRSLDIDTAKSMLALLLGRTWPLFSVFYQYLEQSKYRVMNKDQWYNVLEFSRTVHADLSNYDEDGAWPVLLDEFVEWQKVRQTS
UniProt O00571: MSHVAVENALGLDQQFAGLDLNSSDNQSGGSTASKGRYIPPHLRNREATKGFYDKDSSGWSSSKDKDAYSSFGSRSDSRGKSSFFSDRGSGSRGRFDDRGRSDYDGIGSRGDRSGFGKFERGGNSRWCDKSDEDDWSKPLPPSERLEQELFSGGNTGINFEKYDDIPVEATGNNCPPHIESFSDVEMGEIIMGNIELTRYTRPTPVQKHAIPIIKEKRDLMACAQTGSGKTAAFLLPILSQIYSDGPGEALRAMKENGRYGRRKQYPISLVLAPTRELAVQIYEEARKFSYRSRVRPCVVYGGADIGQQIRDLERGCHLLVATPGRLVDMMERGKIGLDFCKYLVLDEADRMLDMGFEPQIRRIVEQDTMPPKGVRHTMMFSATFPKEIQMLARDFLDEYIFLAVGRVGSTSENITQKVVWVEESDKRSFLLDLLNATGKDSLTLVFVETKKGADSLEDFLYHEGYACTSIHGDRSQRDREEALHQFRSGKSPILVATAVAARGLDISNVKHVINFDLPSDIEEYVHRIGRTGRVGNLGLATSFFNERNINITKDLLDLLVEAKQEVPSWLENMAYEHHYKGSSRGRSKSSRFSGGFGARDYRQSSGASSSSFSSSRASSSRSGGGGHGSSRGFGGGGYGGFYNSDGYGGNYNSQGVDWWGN
UniProt Q9Y4B6: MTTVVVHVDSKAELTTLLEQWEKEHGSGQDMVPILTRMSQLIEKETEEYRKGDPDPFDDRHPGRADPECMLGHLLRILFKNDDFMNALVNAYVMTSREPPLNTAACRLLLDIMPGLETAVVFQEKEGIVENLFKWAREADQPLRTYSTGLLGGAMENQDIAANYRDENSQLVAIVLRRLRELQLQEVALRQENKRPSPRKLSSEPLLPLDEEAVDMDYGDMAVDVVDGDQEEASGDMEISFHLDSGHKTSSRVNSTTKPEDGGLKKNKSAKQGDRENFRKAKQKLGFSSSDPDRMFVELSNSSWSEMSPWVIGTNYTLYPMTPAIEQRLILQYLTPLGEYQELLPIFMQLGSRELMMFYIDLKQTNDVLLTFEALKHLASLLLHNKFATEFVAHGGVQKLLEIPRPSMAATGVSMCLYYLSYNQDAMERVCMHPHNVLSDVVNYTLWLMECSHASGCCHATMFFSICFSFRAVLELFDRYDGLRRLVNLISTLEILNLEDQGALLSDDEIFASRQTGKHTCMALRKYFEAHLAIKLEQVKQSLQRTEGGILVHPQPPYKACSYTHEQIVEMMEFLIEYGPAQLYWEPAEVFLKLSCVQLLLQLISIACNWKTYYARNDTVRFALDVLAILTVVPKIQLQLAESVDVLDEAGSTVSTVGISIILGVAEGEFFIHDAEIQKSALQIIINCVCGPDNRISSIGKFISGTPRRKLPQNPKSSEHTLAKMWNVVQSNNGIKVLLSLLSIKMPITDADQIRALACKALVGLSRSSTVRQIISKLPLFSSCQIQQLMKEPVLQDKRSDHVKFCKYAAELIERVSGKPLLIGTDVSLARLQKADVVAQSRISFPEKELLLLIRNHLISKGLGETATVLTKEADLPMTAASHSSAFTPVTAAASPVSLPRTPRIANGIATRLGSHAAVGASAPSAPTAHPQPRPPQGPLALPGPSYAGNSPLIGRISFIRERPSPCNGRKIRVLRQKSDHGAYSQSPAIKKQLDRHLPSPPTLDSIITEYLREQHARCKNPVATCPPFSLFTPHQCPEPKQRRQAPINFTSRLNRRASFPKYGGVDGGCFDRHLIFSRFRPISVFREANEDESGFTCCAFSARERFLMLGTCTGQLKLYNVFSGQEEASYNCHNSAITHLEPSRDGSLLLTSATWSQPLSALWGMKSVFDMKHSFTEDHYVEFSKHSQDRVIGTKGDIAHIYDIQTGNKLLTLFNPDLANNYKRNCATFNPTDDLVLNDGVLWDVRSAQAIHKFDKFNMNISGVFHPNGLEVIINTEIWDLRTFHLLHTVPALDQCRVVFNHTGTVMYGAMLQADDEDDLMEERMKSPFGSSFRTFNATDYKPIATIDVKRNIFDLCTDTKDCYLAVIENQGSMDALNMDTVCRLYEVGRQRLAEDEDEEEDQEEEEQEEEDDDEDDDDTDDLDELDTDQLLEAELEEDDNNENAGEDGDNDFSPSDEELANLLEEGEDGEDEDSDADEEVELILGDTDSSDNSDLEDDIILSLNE
UniProt Q9NPI6: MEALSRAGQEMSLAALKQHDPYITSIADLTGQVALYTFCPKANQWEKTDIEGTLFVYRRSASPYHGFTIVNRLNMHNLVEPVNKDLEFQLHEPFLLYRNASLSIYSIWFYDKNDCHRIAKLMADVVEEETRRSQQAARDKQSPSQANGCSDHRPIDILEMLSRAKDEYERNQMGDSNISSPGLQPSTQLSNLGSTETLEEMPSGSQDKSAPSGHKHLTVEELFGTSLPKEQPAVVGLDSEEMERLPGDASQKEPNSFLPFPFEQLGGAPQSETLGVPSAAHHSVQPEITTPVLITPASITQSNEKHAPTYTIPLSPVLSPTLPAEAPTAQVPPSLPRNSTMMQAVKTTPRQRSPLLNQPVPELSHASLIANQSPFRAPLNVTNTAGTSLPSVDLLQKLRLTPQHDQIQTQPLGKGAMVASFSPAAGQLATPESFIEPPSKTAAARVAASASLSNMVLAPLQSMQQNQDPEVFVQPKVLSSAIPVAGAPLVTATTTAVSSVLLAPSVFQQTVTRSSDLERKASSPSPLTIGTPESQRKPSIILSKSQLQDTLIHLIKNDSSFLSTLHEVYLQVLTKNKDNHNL

Assays:
Experiment in all cases: log2 fold change, soluble protein after heating vs DMSO (PISA); higher = thermal stabilisation; K562 lysate, 10 uM; active = over 0.2 and 3.5 SD of the protein, either way, in both replicates (recomputed)
alvocidib = compound: CN1CC[C@H](c2c(O)cc(O)c3c(=O)cc(-c4ccccc4Cl)oc23)[C@H](O)C1 [alvocidib]
In short: (§1)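 Values give the log-two fold change in thermal stability against solvent controls, from duplicates. Crude K562 extract at 1 mg/mL protein, made by dounce homogenisation in PBS pH 7.4 with 1 mM MgCl2, was treated with 10 μM compound for 30 min. After 3 min heating across 48°C-58°C, aliquots were pooled, adjusted to 0.5% NP-40 at 4°C and centrifuged at 21,000xg for 90 min. The supernatant was measured by TMTpro 16plex LC-MS/MS with channel sums equalised.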

Tubastatin A = compound: CN1CCc2c(c3ccccc3n2Cc2ccc(C(=O)NO)cc2)C1 [Tubastatin A]
In short: as §1

[1] = compound: CNC(=O)C1=CC=CC=C1NC2=NC(=NC=C2Cl)NC3=C(C=C(C=C3)N4CCOCC4)OC
In short: as §1

defactinib = compound: CNC(=O)c1ccc(Nc2ncc(C(F)(F)F)c(NCc3nccnc3N(C)S(C)(=O)=O)n2)cc1 [defactinib]
In short: as §1

[2] = compound: CNc1nc(-c2ccc3c(N)n[nH]c3c2)cc(N2C[C@@H](C(=O)NC3CCCCC3)CC[C@H]2C)n1
In short: as §1

encorafenib = compound: COC(=O)N[C@@H](C)CNc1nccc(-c2cn(C(C)C)nc2-c2cc(Cl)cc(NS(C)(=O)=O)c2F)n1 [encorafenib]
In short: as §1

[3] = compound: COC(=O)[C@H](CCSC)NC(=O)C1=C(C=C(C=C1)NC[C@H](CS)N)C2=CC=CC=C2
In short: as §1

alisertib = compound: COc1cc(Nc2ncc3c(n2)-c2ccc(Cl)cc2C(c2c(F)cccc2OC)=NC3)ccc1C(=O)O [alisertib]
In short: as §1

[4] = compound: COc1cc2nc(-c3cc(F)ccc3O)nc(N[C@@H]3CNC[C@H]3C(C)(C)O)c2cc1OC
In short: as §1

gefitinib = compound: COc1cc2ncnc(Nc3ccc(F)c(Cl)c3)c2cc1OCCCN1CCOCC1 [gefitinib]
In short: as §1

lapatinib = compound: CS(=O)(=O)CCNCc1ccc(-c2ccc3ncnc(Nc4ccc(OCc5cccc(F)c5)c(Cl)c4)c3c2)o1 [lapatinib]
In short: as §1

pictilisib = compound: CS(=O)(=O)N1CCN(Cc2cc3nc(-c4cccc5[nH]ncc45)nc(N4CCOCC4)c3s2)CC1 [pictilisib]
In short: as §1

crizotinib = compound: C[C@@H](Oc1cc(-c2cnn(C3CCNCC3)c2)cnc1N)c1c(Cl)ccc(F)c1Cl [crizotinib]
In short: as §1

[5] = compound: C[C@H](C1=CC=C(C=C1)C(=O)NC2=C3C=CNC3=NC=C2)N
In short: as §1

duvelisib = compound: C[C@H](Nc1ncnc2nc[nH]c12)c1cc2cccc(Cl)c2c(=O)n1-c1ccccc1 [duvelisib]
In short: as §1

gandotinib = compound: Cc1cc(Nc2cc(CN3CCOCC3)c3nc(C)c(Cc4ccc(Cl)cc4F)n3n2)n[nH]1 [gandotinib]
In short: as §1

tozasertib = compound: Cc1cc(Nc2cc(N3CCN(C)CC3)nc(Sc3ccc(NC(=O)C4CC4)cc3)n2)n[nH]1 [tozasertib]
In short: as §1

doramapimod = compound: Cc1ccc(-n2nc(C(C)(C)C)cc2NC(=O)Nc2ccc(OCCN3CCOCC3)c3ccccc23)cc1 [doramapimod]
In short: as §1

bafetinib = compound: Cc1ccc(NC(=O)c2ccc(CN3CC[C@H](N(C)C)C3)c(C(F)(F)F)c2)cc1Nc1nccc(-c2cncnc2)n1 [bafetinib]
In short: as §1

[6] = compound: Cc1cccc(CC(=O)N2CCc3c2ccc(-c2cn(C)c4ncnc(N)c24)c3F)n1
In short: as §1

Measured: log2 fold change

DENR (UniProt O43583)
inactive: alvocidib 0.01 | Tubastatin A 0.038 | [1] -0.027 | defactinib 0.028 | [2] -0.013 | encorafenib -0.027 | [3] -0.002 | alisertib 0.018 | [4] -0.008 | gefitinib -0.021 | lapatinib -0.02 | pictilisib 0.02 | crizotinib 0.083 | [5] 0.035 | duvelisib 0.054 | gandotinib -0.015 | tozasertib -0.018 | doramapimod -0.066 | bafetinib 0.033 | [6] -0.047

DDX1 (UniProt Q92499)
inactive: alvocidib 0.001 | Tubastatin A -0.044 | [1] 0.02 | defactinib -0.02 | [2] 0.006 | encorafenib -0.018 | [3] 0.063 | alisertib 0.012 | [4] -0.006 | gefitinib -0.013 | lapatinib 0.007 | pictilisib -0.006 | crizotinib -0.039 | [5] -0.013 | duvelisib -0.011 | gandotinib -0.004 | tozasertib -0.001 | doramapimod 0.013 | bafetinib -0.018 | [6] -0.018

DDX5 (UniProt P17844)
inactive: alvocidib 0.006 | Tubastatin A 0.006 | [1] 0.017 | defactinib -0.002 | [2] -0.02 | encorafenib 0.034 | [3] 0.02 | alisertib 0.024 | [4] -0.01 | gefitinib -0.001 | lapatinib -0.007 | pictilisib 0 | crizotinib -0.004 | [5] 0 | duvelisib -0.012 | gandotinib -0.117 | tozasertib 0.027 | doramapimod 0.083 | bafetinib 0.001 | [6] -0.02

DDX19B (UniProt Q9UMR2)
inactive: alvocidib -0.012 | Tubastatin A -0.028 | [1] 0.002 | defactinib -0.009 | [2] 0.022 | encorafenib 0 | [3] 0.064 | alisertib 0.004 | [4] 0.016 | gefitinib 0.026 | lapatinib -0.004 | pictilisib 0.01 | crizotinib -0.061 | [5] -0.021 | duvelisib 0.005 | gandotinib -0.012 | tozasertib -0.027 | doramapimod 0.019 | bafetinib -0.026 | [6] 0.042

DCTN2 (UniProt Q13561)
inactive: alvocidib -0.019 | Tubastatin A 0.011 | [1] -0.005 | defactinib 0.135 | [2] 0.083 | encorafenib -0.033 | [3] -0.043 | alisertib 0.019 | [4] 0.022 | gefitinib -0.06 | lapatinib 0.025 | pictilisib 0.031 | crizotinib -0.04 | [5] 0.113 | duvelisib -0.153 | gandotinib -0.029 | tozasertib -0.011 | doramapimod -0.068 | bafetinib 0.157 | [6] -0.013

DDOST (UniProt P39656)
inactive: alvocidib -0.048 | Tubastatin A 0.032 | [1] -0.031 | defactinib -0.027 | [2] 0.016 | encorafenib -0.01 | [3] -0.02 | alisertib 0.01 | [4] -0.034 | gefitinib 0.04 | lapatinib -0.014 | pictilisib 0.017 | crizotinib -0.021 | [5] -0.103 | duvelisib -0.004 | gandotinib 0.061 | tozasertib 0.003 | doramapimod 0.002 | bafetinib -0.041 | [6] 0.08

DDA1 (UniProt Q9BW61)
inactive: alvocidib 0.024 | Tubastatin A -0.002 | [1] 0.015 | defactinib -0.004 | [2] 0.031 | encorafenib 0.013 | [3] 0.021 | alisertib -0.024 | [4] -0.003 | gefitinib -0.034 | lapatinib 0.011 | pictilisib -0.025 | crizotinib 0.025 | [5] -0.013 | duvelisib -0.013 | gandotinib -0.019 | tozasertib -0.037 | doramapimod 0.013 | bafetinib 0.011 | [6] -0.062

Reprinted from the listing (two entries):
DCTN2 (UniProt Q13561)
inactive: alvocidib -0.019 | Tubastatin A 0.011 | [1] -0.005 | defactinib 0.135 | [2] 0.083 | encorafenib -0.033 | [3] -0.043 | alisertib 0.019 | [4] 0.022 | gefitinib -0.06 | lapatinib 0.025 | pictilisib 0.031 | crizotinib -0.04 | [5] 0.113 | duvelisib -0.153 | gandotinib -0.029 | tozasertib -0.011 | doramapimod -0.068 | bafetinib 0.157 | [6] -0.013

DDOST (UniProt P39656)
inactive: alvocidib -0.048 | Tubastatin A 0.032 | [1] -0.031 | defactinib -0.027 | [2] 0.016 | encorafenib -0.01 | [3] -0.02 | alisertib 0.01 | [4] -0.034 | gefitinib 0.04 | lapatinib -0.014 | pictilisib 0.017 | crizotinib -0.021 | [5] -0.103 | duvelisib -0.004 | gandotinib 0.061 | tozasertib 0.003 | doramapimod 0.002 | bafetinib -0.041 | [6] 0.08

(further entries)

DDX17 (UniProt Q92841)
inactive: alvocidib -0.021 | Tubastatin A -0.061 | [1] 0.015 | defactinib -0.001 | [2] -0.019 | encorafenib -0.009 | [3] 0.006 | alisertib 0.012 | [4] -0.008 | gefitinib -0.016 | lapatinib -0.009 | pictilisib -0.021 | crizotinib 0.038 | [5] -0.054 | duvelisib -0.015 | gandotinib 0.012 | tozasertib 0.005 | doramapimod 0.058 | bafetinib -0.001 | [6] 0.082

DDX50 (UniProt Q9BQ39)
inactive: alvocidib 0.085 | Tubastatin A -0.148 | [1] 0.036 | defactinib -0.064 | [2] 0.012 | encorafenib -0.002 | [3] 0.009 | alisertib 0.024 | [4] 0.013 | gefitinib -0.014 | lapatinib -0.022 | pictilisib 0.051 | crizotinib -0.056 | [5] 0.079 | duvelisib -0.011 | gandotinib -0.067 | tozasertib 0.146 | doramapimod -0.004 | bafetinib -0.023 | [6] -0.011

DDRGK1 (UniProt Q96HY6)
inactive: alvocidib 0.005 | Tubastatin A 0.076 | [1] -0.057 | defactinib -0.011 | [2] 0.064 | encorafenib 0.026 | [3] 0.008 | alisertib 0.009 | [4] 0.022 | gefitinib 0.006 | lapatinib -0.021 | pictilisib -0.07 | crizotinib -0.033 | [5] 0.042 | duvelisib -0.002 | gandotinib 0.001 | tozasertib -0.04 | doramapimod 0.013 | bafetinib -0.019 | [6] -0.03

DDT (UniProt P30046)
inactive: alvocidib 0 | Tubastatin A 0.037 | [1] 0.041 | defactinib 0.061 | [2] 0.03 | encorafenib -0.017 | [3] -0.07 | alisertib 0.042 | [4] 0.013 | gefitinib -0.006 | lapatinib -0.004 | pictilisib -0.061 | crizotinib 0.033 | [5] -0.045 | duvelisib 0.018 | gandotinib 0.103 | tozasertib 0.02 | doramapimod 0.013 | bafetinib -0.008 | [6] 0.036

DCUN1D5 (UniProt Q9BTE7)
inactive: alvocidib 0.04 | Tubastatin A -0.107 | [1] -0.019 | defactinib 0.002 | [2] 0.027 | encorafenib 0.018 | [3] 0.138 | alisertib 0.001 | [4] 0.073 | gefitinib -0.026 | lapatinib -0.096 | pictilisib 0.019 | crizotinib -0.076 | [5] -0.012 | duvelisib 0.058 | gandotinib -0.068 | tozasertib -0.062 | doramapimod 0.009 | bafetinib -0.113 | [6] 0.03

DDX39A (UniProt O00148)
inactive: alvocidib -0.017 | Tubastatin A -0.171 | [1] -0.006 | defactinib 0.003 | [2] -0.025 | encorafenib 0.001 | [3] 0.163 | alisertib -0.026 | [4] 0.004 | gefitinib 0.009 | lapatinib -0.004 | pictilisib 0.021 | crizotinib 0.006 | [5] -0.022 | duvelisib 0.004 | gandotinib -0.104 | tozasertib -0.008 | doramapimod -0.046 | bafetinib -0.004 | [6] 0.093

DDX3X (UniProt O00571)
inactive: alvocidib -0.062 | Tubastatin A -0.229 | [1] 0.049 | defactinib -0.007 | [2] -0.022 | encorafenib 0.018 | [3] 0.012 | alisertib 0.01 | [4] -0.002 | gefitinib 0.155 | lapatinib -0.026 | pictilisib -0.014 | crizotinib -0.118 | [5] -0.081 | duvelisib 0.051 | gandotinib 0.027 | tozasertib -0.02 | doramapimod 0.086 | bafetinib -0.08 | [6] 0.112

DCAF1 (UniProt Q9Y4B6)
inactive: alvocidib -0.006 | Tubastatin A -0.043 | [1] 0.008 | defactinib -0.01 | [2] -0.017 | encorafenib 0.015 | [3] 0.022 | alisertib 0.006 | [4] 0.043 | gefitinib 0.007 | lapatinib -0.035 | pictilisib -0.001 | crizotinib -0.017 | [5] -0.027 | duvelisib 0.003 | gandotinib -0.015 | tozasertib 0.004 | doramapimod 0.012 | bafetinib -0.035 | [6] 0.028

DCP1A (UniProt Q9NPI6)
inactive: alvocidib -0.002 | Tubastatin A 0 | [1] 0.003 | defactinib 0.033 | [2] 0 | encorafenib 0.006 | [3] -0.046 | alisertib -0.074 | [4] 0.026 | gefitinib 0.022 | lapatinib -0.015 | pictilisib -0.015 | crizotinib -0.042 | [5] -0.008 | duvelisib 0.023 | gandotinib 0.003 | tozasertib -0.03 | doramapimod -0.031 | bafetinib 0.043 | [6] 0.089
